Experimental data as given in PMC4581162.
These are yes or no findings as the source states them, for the method shown. Binding seen in cells or lysates may run through a third protein. Some binding calls cover weakened binding; strength is not graded here. Sequences can lack the tags named with a protein.

Key:
[1] = biological target: T1, Promyelocytic leukemia zinc finger protein (PLZF), endogenous in KG1a cells (human (endogenous in KG1a)), Q05516; assay: co-IP; endogenous proteins from KG1a whole cell lysates (1 % NP40, 150 mM NaCl, 20 mM Tris pH 8.0); precipitated with anti-PLZF, anti-HDAC3 or anti-SIRT1 antibody for 16 h at 4 °C, protein A agarose; immunoblot; settings: remark: other sources report otherwise
T1 chain: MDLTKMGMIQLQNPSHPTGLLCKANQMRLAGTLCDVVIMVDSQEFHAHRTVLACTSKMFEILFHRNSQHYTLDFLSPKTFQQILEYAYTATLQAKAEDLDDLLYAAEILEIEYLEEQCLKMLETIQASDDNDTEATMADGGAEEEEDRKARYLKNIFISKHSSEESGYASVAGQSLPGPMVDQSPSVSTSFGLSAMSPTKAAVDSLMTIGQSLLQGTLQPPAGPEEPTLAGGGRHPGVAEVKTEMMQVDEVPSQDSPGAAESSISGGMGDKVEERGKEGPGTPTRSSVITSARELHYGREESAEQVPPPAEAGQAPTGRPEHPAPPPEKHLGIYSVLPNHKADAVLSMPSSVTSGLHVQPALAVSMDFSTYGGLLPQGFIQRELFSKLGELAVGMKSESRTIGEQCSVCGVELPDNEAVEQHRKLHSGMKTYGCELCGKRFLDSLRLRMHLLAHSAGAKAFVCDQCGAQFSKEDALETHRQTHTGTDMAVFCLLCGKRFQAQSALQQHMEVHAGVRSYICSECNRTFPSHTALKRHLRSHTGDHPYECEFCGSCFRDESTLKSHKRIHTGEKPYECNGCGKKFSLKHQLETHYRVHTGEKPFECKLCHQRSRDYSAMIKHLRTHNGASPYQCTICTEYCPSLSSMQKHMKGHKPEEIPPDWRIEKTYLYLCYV

[2] = biological target: T2, GST-PLZF, full-length PLZF, Q05516; assay: pull-down; GST fusions of PLZF incubated with 35S-labeled in vitro translated HDAC3; only the target purified; settings: remark: other sources report otherwise
T2 chain: T1 chain

B1: Histone deacetylase 3 (HDAC3), endogenous in KG1a cells, O15379 1-428 (enzyme)
chain: MAKTVAYFYDPDVGNFHYGAGHPMKPHRLALTHSLVLHYGLYKKMIVFKPYQASQHDMCRFHSEDYIDFLQRVSPTNMQGFTKSLNAFNVGDDCPVFPGLFEFCSRYTGASLQGATQLNNKICDIAINWAGGLHHAKKFEASGFCYVNDIVIGILELLKYHPRVLYIDIDIHHGDGVQEAFYLTDRVMTVSFHKYGNYFFPGTGDMYEVGAESGRYYCLNVPLRDGIDDQSYKHLFQPVINQVVDFYQPTCIVLQCGADSLGCDRLGCFNLSIRGHGECVEYVKSFNIPLLVLGGGGYTVRNVARCWTYETSLLVEEAISEELPYSEYFEYFAPDFTLHPDVSTRIENQNSRQYLDQIRQTIFENLKMLNHAPSVQIHDVPADLLTYDRTDEADAEERGPEENYSRPEAPNEFYDGDHDNDKESDVEI
binding [1]: binds

B2: 35S-labeled HDAC3, in vitro translated, O15379 1-428 (enzyme)
chain: B1 chain
modifications: here or on the partner: [35S]methionine-labeled
binding [2]: binds
